For this assay, the target named is ColN_(1–90) (ColN-T), isolated translocation domain of colicin N (Escherichia coli) (UniProt P08083). Nature of the assay: AUC; sedimentation velocity, 48,000 RPM, 4°C, 20 mM Tris, 150 mM NaCl, pH 7.5; 0.3-1.5 mg/mL; c(s) and c(M) analysis in SEDFIT; both purified.

These are yes or no findings as the source states them, for the method shown.

B1: ColN_(1–90) (ColN-T), isolated translocation domain of colicin N (domain or fragment)
chain: MGSNGADNAHNNAFGGGKNPGIGNTSGAGSNGSASSNRGNSNGWSWSNKPHKNDGFHSDGSYHITFHGDNNSKPKPGGNSGNRGNNGDGA
notes: colicin N (ColN), residues 1-90, the intrinsically disordered translocation (T-) domain; the whole toxin has 387 residues; 98-residue construct: residues 1-90 followed directly by Ser2His6; Used unlabelled in the NMR mixing experiment; also called T-domain; ColN-T(1-90)-SSHHHHHH; source: purified as previously described (20, 26), dialysed into 50 mM sodium phosphate, pH 7.6, 300 mM NaCl; not …
Take B1: the binding entry is “no binding (tested: 0.3-1.5 mg/mL)”.

The values are drawn from PMC5647543, “The Two-State Prehensile Tail of the Antibacterial Toxin Colicin N” (Biophysical Journal, 2017).
